# Results: the supplement of paper PMC3334620
# The full ranking holds about 33,000 sequences; the median of “E-score (-0.5 to 0.5)” is about -0.015, and the highest 2% start at about 0.3. Some of the results follow.
# Biological target: T1, Abf1 (UniProt P14164)
# T1 sequence: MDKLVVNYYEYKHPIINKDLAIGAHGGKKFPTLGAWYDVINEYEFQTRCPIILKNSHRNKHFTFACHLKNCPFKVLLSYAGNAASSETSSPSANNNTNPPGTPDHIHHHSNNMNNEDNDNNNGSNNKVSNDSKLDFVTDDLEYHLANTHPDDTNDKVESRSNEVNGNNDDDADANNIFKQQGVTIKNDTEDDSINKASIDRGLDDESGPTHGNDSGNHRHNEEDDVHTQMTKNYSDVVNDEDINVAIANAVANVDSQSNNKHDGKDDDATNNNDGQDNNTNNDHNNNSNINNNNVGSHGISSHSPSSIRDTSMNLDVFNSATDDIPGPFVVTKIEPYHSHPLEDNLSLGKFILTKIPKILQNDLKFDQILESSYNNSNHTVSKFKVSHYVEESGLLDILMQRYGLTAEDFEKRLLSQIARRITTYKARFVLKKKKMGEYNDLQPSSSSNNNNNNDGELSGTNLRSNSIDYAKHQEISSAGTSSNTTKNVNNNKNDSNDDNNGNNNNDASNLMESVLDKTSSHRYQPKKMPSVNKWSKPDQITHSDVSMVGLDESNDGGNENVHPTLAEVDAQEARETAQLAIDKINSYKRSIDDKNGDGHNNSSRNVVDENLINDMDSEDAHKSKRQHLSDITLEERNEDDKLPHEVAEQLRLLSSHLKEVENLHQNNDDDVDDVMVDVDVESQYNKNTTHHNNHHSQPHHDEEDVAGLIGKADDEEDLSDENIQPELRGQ
# Assay: PBM E-score (8-mer binding enrichment) (E-score (-0.5 to 0.5)); higher = stronger / more preferred TF binding
# Conditions: protein concentration: 200 nM; construct: GST-full length
# Experimental: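 Universal 'all 10-mer' protein binding microarrays (Agilent AMADID 015681) probed with GST-tagged S. cerevisiae TFs (full-length or DBD) made by in vitro transcription/translation (PURExpress), about 100-200 nM. Bound TF was detected with fluorescent anti-GST. Each ungapped 8-mer (which stands for itself and its reverse complement) is scored by the PBM enrichment score (E-score), a modified Wilcoxon-Mann-Whitney statistic from -0.5 to +0.5, computed with the Universal PBM Analysis Suite. Scale: above 0.35 generally sequence-specific binding.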
row,Sequence,PBM E-score
1,GACGTTGA,0.051
2,AGCAGGCG,-0.0906
3,CGGGCCGC,-0.0853
4,ACGCATGA,0.0377
5,TGAGCACA,0.0475
6,CAATTCAC,-0.0392
7,CCTCACGC,0.00968
8,ACGTACCT,0.253
9,CCCCGACA,-0.146
10,AATTCCGT,0.115
11,CTCACCAG,-0.101
12,ACCAAGTC,-0.021
13,TGCCGCAA,0.0987
14,CGGTGCAA,-0.0174
15,AGGAACAT,-0.131
16,TATGAGAA,0.0987
17,AGAAACTA,-0.101
18,CTCAGCTA,-0.184
19,CAAGTAGC,0.00867
20,ATAATTCG,0.124
21,CGTCCACG,0.286
22,GATCAATA,0.0988
23,CTAACTGA,0.0393
24,AGCTTTTA,-0.0137
25,CGGGCTAC,0.0755

# Copied from the entries so far (two entries):
row,Sequence,PBM E-score
18,CTCAGCTA,-0.184
19,CAAGTAGC,0.00867

# Next part:

row,Sequence,PBM E-score
1,ACGCGAAC,-0.134
2,GCGACGCA,0.196
3,TGTACTAA,0.0702
4,ACCATGGA,-0.0972
5,CGTGTCTA,0.0948
6,GCGTGGAC,-0.011
7,CTCTGGGA,-0.207
8,AGTCCACC,-0.0728
9,AGTGGGCA,0.0126
10,AAGAAGAG,-0.0782
11,GTGGTCAA,0.0649
12,GAAATACA,-0.00588
13,CGAGATAC,0.15
14,CCCCCGAC,-0.0634
15,CCTCACCG,-0.0441
16,GTGTTCAA,0.102
17,GAGCCAGC,-0.189
18,ACCGAGGT,-0.113
19,CGAATAAC,0.122
20,ACTTTAAA,0.175
21,AGACGTGG,-0.0183
22,AGTGCTCA,-0.0111
23,CTCTCTTA,-0.0765
24,CGAAGTTA,-0.0442
25,AAAGCGGC,-0.159

row,Sequence,PBM E-score
1,AAGTCCTC,-0.17
2,CGATTATA,0.218
3,CAAGCTCA,-0.0752
4,AGCGGTGG,-0.177
5,AATCCTGT,0.143
6,GAATTCGA,-0.0643
7,CTTATGAC,0.0549
8,AGCATGTA,0.0385
9,GCTGAGAA,-0.109
10,CGTTATTC,0.0363
11,ACTTTTCC,0.157
12,AGTGTTCC,0.152
13,GGGGACCA,-0.106
14,CCATGCAC,-0.0763
15,GGTATACC,-0.207
16,CACCGAGC,-0.0571
17,TATGAGCA,-0.0345
18,TGTTGCAA,0.115
19,ATAGAGAG,-0.213
20,AACCCAAA,0.0493
21,ACTAGCTG,0.187
22,CAGTGACA,0.3
23,ATATAAAT,0.3
24,CAAGCCCC,-0.272
25,GAGCGGCA,-0.039

row,Sequence,PBM E-score
1,AGTTAGCG,-0.0148
2,CCCGCGAC,0.0144
3,GTAACAGA,0.00642
4,CGTTACAA,0.195
5,CACTTAGA,0.186
6,GGAACGCA,-0.0656
7,GGACTCAA,-0.158
8,ATAACGAG,0.24
9,ACGAAAGA,0.0978
10,ATTTATCA,0.314
11,AGGCCCGA,-0.383
12,CATGTTTC,0.0467
13,CTCGTAAA,0.226
14,TGATTGAA,0.2
15,CGCCCTAG,-0.0127
16,CACGTGGA,0.182
17,AACTGTCC,-0.0547
18,ATGACGCG,0.0972
19,CTCACTTA,0.14
20,AGACCGTA,0.0319
21,TCGCTTAA,0.135
22,TTGAACAA,0.0308
23,AAAGTGTA,0.0985
24,ACCTAACG,0.0885
25,ATCTAAGG,0.0522

# Reprinted at random: 3 records from the list.
row,Sequence,PBM E-score
5,CACTTAGA,0.186
18,ATGACGCG,0.0972
1,AGTTAGCG,-0.0148

# The listing continues.

row,Sequence,PBM E-score
1,ATCCGTGA,0.251
2,GACCTCGA,-0.00289
3,ACTAGATC,-0.0369
4,ATGCGTGG,-0.109
5,CCCGGCAG,-0.135
6,CAAGGATC,-0.0299
7,ATTACAGC,-0.0293
8,ACGCATTG,0.0256
9,AACGCGAT,0.0681
10,ATTAGAAT,0.0036
11,CGCCAGAG,-0.201
12,CTGCAAAA,0.0938
13,GATCGTAA,0.254
14,CAGAACCA,-0.174
15,CCGAGATC,0.0295
16,AAAAGATG,0.11
17,AAAACCTT,-0.204
18,GACAAGAA,0.0728
19,CCCAACTC,-0.19
20,CAAGGTTC,-0.0801
21,CATGGGCC,-0.102
22,GACGTCGC,0.122
23,GGAAGTAC,-0.0706
24,TACCAGTA,0.0685
25,CTATCCTC,-0.0153

row,Sequence,PBM E-score
1,ATATCGGC,0.149
2,ACCGACGA,0.104
3,GTCCCGAC,-0.155
4,GTGCTGAA,-0.0603
5,GAAGACTC,0.0777
6,TATTAAAA,0.225
7,GGGTGGAA,-0.194
8,GGTCGTAC,0.212
9,CATTAGGA,-0.0278
10,AGGTAGAT,-0.0286
11,CCCTTCCG,-0.286
12,ATATATCC,0.171
13,ACCGCGGT,0.0152
14,ACAGCTCT,-0.248
15,AAAAAGTA,0.242
16,CCCTTTAC,-0.191
17,ACTAGAGT,-0.116
18,AATCTGCG,0.0356
19,AACAGTAA,-0.0209
20,CTCTAGAG,-0.12
21,ACTGTTAA,0.0822
22,CATCGTCA,0.297
23,GTGGGCCA,0.0455
24,GTTCAGCA,0.114
25,GTCTGTCA,0.129

row,Sequence,PBM E-score
1,CCCTCTGA,-0.196
2,AGGAAAAG,-0.119
3,AATGGATA,0.0384
4,ACGCCCGC,-0.0428
5,AACTTTCG,-0.144
6,CAACGATG,0.014
7,GATGACAC,0.337
8,ATCGAGGC,-0.126
9,CGTCAGGA,0.184
10,GACTGAAC,-0.107
11,GATGTACA,0.0804
12,GGTCCAAC,-0.17
13,AATCGCGG,-0.0917
14,ACCTGGTG,-0.228
15,AAAGGAGT,-0.219
16,ACAGAATC,-0.0766
17,AGATGTAT,-0.00043
18,CACCTGCC,-0.0811
19,ACTGCGAC,-0.0346
20,TATATTAA,0.167
21,ACACGTGA,0.237
22,ACCGCTAG,-0.2
